From the supplement of paper PMC10849652 come the findings set out here.

Protein sequences, listed by entry. Tags and fused reporters are not part of them. Lines headed by an entry give the natural chain unless they say otherwise; changes in a name come on top.
UniProt P55345: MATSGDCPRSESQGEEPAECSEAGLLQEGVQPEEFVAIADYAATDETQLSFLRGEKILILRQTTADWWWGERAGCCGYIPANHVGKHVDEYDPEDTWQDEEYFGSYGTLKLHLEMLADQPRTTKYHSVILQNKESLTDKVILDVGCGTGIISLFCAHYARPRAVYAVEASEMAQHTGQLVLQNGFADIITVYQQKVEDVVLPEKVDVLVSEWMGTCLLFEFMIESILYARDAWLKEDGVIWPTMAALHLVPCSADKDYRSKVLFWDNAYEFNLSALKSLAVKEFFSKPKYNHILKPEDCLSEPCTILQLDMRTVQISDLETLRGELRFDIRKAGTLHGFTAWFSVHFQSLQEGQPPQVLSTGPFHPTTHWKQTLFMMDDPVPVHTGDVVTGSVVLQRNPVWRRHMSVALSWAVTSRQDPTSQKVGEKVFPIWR
UniProt O75688: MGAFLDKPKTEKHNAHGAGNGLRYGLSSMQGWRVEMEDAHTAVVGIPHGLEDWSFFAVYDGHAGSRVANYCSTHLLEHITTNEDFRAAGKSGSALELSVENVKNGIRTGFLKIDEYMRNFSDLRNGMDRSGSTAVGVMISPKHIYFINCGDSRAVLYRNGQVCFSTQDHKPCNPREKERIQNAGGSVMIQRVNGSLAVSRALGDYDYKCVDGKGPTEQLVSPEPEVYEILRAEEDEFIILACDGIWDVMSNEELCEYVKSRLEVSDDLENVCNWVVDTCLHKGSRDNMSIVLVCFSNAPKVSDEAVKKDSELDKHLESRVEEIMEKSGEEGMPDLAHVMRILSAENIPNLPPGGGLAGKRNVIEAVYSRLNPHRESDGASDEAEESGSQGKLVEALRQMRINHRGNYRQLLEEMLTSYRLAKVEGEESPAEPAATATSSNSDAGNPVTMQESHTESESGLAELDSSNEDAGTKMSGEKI
UniProt Q5H9R7: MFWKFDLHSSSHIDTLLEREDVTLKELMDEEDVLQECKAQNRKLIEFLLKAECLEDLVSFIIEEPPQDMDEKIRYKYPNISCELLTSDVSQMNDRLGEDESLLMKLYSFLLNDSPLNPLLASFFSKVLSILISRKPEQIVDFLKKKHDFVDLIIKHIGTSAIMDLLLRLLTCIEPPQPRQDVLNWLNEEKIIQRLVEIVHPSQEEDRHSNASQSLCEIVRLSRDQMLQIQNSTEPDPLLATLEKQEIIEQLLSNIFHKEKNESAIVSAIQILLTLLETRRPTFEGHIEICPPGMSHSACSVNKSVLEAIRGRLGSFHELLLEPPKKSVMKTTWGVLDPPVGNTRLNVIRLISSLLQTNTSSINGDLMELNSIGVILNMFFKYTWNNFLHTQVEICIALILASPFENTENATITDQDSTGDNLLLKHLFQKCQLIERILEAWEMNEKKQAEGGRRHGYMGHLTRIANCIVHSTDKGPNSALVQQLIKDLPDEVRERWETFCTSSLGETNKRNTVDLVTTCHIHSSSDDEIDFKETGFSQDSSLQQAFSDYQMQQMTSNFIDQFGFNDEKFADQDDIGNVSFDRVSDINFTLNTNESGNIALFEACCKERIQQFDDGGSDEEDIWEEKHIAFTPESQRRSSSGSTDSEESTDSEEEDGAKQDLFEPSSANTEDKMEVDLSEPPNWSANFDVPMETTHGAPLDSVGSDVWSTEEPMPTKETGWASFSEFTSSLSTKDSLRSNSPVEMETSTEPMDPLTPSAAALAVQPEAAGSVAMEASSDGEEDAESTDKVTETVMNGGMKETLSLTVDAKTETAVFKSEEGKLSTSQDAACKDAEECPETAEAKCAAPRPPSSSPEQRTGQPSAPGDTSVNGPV
UniProt Q2NL68: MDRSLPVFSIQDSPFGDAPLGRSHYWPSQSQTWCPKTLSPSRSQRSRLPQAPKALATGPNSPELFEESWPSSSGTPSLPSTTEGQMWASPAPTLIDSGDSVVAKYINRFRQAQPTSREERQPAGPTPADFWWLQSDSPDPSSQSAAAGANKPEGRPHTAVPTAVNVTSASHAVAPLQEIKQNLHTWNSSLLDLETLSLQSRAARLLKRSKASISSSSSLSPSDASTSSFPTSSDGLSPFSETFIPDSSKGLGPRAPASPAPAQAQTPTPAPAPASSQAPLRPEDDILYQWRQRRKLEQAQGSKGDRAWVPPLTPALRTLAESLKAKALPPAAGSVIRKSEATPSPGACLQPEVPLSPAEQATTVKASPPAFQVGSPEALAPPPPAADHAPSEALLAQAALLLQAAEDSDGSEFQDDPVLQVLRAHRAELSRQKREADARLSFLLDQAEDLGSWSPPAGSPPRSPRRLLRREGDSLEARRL
UniProt Q96LW4: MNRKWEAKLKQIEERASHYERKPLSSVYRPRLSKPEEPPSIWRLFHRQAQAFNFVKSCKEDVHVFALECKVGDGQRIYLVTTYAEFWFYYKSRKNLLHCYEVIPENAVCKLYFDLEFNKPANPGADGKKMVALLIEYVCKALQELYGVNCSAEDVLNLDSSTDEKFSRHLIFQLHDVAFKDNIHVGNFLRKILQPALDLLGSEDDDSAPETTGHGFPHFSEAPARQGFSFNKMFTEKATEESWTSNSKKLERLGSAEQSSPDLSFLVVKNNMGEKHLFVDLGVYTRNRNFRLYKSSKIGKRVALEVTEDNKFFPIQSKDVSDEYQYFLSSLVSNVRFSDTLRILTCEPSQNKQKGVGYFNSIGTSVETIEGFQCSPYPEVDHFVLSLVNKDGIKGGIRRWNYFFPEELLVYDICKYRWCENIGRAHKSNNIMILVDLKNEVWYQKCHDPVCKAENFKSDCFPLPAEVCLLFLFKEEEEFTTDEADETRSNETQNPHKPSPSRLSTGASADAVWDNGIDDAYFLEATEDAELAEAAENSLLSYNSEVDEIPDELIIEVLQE
UniProt P02810: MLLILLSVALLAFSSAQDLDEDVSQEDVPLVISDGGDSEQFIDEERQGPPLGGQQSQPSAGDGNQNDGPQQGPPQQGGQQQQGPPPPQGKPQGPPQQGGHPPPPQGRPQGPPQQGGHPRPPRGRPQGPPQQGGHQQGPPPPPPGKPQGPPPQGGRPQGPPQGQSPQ
UniProt Q9Y5P8: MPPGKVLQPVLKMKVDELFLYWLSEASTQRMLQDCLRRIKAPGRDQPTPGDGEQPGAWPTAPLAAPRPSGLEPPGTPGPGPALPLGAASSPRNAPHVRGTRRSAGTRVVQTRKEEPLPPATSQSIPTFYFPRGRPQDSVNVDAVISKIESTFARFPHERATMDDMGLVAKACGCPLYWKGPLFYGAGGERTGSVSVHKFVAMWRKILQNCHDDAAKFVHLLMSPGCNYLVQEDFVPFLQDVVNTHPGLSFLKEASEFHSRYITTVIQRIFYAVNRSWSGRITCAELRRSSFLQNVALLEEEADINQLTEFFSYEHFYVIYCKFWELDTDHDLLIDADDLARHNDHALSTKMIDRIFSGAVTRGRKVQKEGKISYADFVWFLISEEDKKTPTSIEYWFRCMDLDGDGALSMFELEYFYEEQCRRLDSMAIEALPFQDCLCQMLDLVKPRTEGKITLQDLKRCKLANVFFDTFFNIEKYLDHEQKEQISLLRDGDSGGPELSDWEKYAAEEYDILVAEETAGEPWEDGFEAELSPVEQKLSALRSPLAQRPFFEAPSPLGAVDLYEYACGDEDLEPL
UniProt Q15435: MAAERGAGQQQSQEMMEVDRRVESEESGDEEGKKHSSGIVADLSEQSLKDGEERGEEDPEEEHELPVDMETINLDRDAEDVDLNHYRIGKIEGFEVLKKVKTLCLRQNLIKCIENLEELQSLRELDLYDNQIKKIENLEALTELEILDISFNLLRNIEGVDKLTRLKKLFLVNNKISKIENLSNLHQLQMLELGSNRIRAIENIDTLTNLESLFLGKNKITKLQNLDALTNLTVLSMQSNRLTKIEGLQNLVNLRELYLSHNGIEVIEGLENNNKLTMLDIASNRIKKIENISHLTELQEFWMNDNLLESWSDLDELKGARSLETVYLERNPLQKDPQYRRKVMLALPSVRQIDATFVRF
UniProt Q9Y570: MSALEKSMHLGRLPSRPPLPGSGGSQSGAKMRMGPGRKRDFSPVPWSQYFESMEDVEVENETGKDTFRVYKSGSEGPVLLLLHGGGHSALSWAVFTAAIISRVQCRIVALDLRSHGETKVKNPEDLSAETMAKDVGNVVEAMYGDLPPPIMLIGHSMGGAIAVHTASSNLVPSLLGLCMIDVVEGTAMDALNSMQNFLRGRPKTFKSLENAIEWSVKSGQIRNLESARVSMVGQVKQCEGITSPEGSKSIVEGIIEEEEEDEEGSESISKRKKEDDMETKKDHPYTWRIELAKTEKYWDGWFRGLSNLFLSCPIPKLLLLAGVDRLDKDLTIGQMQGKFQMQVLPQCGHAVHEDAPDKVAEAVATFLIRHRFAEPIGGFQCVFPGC
UniProt Q8NI37: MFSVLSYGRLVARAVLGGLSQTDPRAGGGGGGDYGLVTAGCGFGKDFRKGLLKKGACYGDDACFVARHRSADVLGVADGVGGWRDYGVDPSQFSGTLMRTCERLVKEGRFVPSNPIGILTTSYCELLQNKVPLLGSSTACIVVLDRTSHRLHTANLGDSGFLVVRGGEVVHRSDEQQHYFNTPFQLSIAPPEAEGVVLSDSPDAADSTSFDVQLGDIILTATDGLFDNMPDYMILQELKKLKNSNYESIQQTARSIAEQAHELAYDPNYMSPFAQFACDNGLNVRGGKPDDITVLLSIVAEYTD
UniProt Q9BZL4: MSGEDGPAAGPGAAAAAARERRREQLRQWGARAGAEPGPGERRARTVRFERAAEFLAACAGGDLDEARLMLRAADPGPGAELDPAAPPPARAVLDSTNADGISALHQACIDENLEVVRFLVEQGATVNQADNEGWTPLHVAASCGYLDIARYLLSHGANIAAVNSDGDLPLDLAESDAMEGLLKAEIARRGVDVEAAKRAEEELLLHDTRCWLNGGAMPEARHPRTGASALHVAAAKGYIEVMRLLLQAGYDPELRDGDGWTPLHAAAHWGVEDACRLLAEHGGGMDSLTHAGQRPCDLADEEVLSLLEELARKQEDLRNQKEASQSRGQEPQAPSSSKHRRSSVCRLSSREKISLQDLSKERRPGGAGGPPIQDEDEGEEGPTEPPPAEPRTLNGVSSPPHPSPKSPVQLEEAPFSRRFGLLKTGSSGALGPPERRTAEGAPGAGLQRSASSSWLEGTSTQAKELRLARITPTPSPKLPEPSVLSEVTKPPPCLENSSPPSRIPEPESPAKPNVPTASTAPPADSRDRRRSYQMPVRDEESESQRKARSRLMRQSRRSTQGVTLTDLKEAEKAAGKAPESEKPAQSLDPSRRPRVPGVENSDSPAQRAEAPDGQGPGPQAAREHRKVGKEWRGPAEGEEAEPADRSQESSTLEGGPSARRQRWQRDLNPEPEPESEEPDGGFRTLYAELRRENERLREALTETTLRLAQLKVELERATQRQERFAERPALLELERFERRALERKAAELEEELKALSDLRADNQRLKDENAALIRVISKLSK
UniProt Q5SWA1: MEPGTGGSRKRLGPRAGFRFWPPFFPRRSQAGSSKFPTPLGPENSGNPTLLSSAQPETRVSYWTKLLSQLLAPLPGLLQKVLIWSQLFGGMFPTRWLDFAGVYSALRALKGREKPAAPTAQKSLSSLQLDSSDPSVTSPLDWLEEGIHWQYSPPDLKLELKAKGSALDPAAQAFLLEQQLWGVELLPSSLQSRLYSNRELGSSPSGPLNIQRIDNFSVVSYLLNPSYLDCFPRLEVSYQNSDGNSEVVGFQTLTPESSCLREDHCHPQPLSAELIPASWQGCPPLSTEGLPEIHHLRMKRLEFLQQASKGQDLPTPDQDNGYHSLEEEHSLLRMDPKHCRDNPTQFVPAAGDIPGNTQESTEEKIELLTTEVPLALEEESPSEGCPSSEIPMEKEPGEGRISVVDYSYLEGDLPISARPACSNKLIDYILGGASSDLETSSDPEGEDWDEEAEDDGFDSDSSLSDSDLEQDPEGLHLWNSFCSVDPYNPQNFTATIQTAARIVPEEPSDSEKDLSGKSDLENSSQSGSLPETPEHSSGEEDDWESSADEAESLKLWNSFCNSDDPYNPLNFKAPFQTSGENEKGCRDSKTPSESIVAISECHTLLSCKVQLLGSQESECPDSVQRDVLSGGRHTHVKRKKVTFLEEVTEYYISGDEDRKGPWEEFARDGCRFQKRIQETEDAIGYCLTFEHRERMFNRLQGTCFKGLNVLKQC

This is one part of the list.

Common to all, as to assay: log2 fold change, soluble protein after heating vs DMSO (PISA); higher = thermal stabilisation; K562 lysate, 10 uM; active = over 0.2 and 3.5 SD of the protein, either way, in both replicates (recomputed)
Compound in one assay: CN1CC[C@H](c2c(O)cc(O)c3c(=O)cc(-c4ccccc4Cl)oc23)[C@H](O)C1 [alvocidib]
The method in brief:
(§1)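 A 30 min treatment with 10 μM compound was applied to crude K562 extract at 1 mg/mL protein in PBS pH 7.4 with 1 mM MgCl2. Heating for 3 min spanned 48°C-58°C, after which aliquots were pooled, adjusted to 0.5% NP-40 at 4°C and spun at 21,000xg for 90 min. TMTpro 16plex LC-MS/MS of the supernatant, with channel sums equalised, gave values recorded as log-two fold change in thermal stability against solvent controls, from duplicates.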

Compound in the next assay: CN1CCc2c(c3ccccc3n2Cc2ccc(C(=O)NO)cc2)C1 [Tubastatin A]
The gist of the method: as §1

Compound in the next assay: CNC(=O)c1ccc(Nc2ncc(C(F)(F)F)c(NCc3nccnc3N(C)S(C)(=O)=O)n2)cc1 [defactinib]
The method in brief: as §1

Compound in assay [1]: CNc1nc(-c2ccc3c(N)n[nH]c3c2)cc(N2C[C@@H](C(=O)NC3CCCCC3)CC[C@H]2C)n1
The method in brief: as §1

Compound in the next assay: COC(=O)N[C@@H](C)CNc1nccc(-c2cn(C(C)C)nc2-c2cc(Cl)cc(NS(C)(=O)=O)c2F)n1 [encorafenib]
The method in brief:
as §1

Compound in assay [2]: COC(=O)[C@H](CCSC)NC(=O)C1=C(C=C(C=C1)NC[C@H](CS)N)C2=CC=CC=C2
The gist of the method: as §1

Compound in assay [3]: COc1cc2nc(-c3cc(F)ccc3O)nc(N[C@@H]3CNC[C@H]3C(C)(C)O)c2cc1OC
The method in brief: as §1

Compound in the next assay: CS(=O)(=O)CCNCc1ccc(-c2ccc3ncnc(Nc4ccc(OCc5cccc(F)c5)c(Cl)c4)c3c2)o1 [lapatinib]
The gist of the method:
as §1

Compound in another assay: CS(=O)(=O)N1CCN(Cc2cc3nc(-c4cccc5[nH]ncc45)nc(N4CCOCC4)c3s2)CC1 [pictilisib]
The method in brief:
as §1

Compound in assay [4]: C[C@H](C1=CC=C(C=C1)C(=O)NC2=C3C=CNC3=NC=C2)N
The method in brief: as §1

Compound in another assay: C[C@H](Nc1ncnc2nc[nH]c12)c1cc2cccc(Cl)c2c(=O)n1-c1ccccc1 [duvelisib]
The method in brief: as §1

Compound in another assay: Cc1cc(Nc2cc(CN3CCOCC3)c3nc(C)c(Cc4ccc(Cl)cc4F)n3n2)n[nH]1 [gandotinib]
The gist of the method:
as §1

Compound in the next assay: Cc1cc(Nc2cc(N3CCN(C)CC3)nc(Sc3ccc(NC(=O)C4CC4)cc3)n2)n[nH]1 [tozasertib]
The method in brief:
as §1

Compound in the next assay: Cc1ccc(NC(=O)c2ccc(CN3CC[C@H](N(C)C)C3)c(C(F)(F)F)c2)cc1Nc1nccc(-c2cncnc2)n1 [bafetinib]
The method in brief:
as §1

Compound in assay [5]: Cc1cccc(CC(=O)N2CCc3c2ccc(-c2cn(C)c4ncnc(N)c24)c3F)n1
The method in brief:
as §1

Compound in a further assay: COc1cc(Nc2ncc3c(n2)-c2ccc(Cl)cc2C(c2c(F)cccc2OC)=NC3)ccc1C(=O)O [alisertib]
The gist of the method: as §1

Compound in another assay: COc1cc2ncnc(Nc3ccc(F)c(Cl)c3)c2cc1OCCCN1CCOCC1 [gefitinib]
The method in brief:
as §1

Compound in assay [6]: CNC(=O)C1=CC=CC=C1NC2=NC(=NC=C2Cl)NC3=C(C=C(C=C3)N4CCOCC4)OC
The method in brief:
as §1

Compound in the next assay: C[C@@H](Oc1cc(-c2cnn(C3CCNCC3)c2)cnc1N)c1c(Cl)ccc(F)c1Cl [crizotinib]
The gist of the method:
as §1

Compound in a further assay: Cc1ccc(-n2nc(C(C)(C)C)cc2NC(=O)Nc2ccc(OCCN3CCOCC3)c3ccccc23)cc1 [doramapimod]
The method in brief: as §1

On to PRMT2 (UniProt P55345), for which the log2 fold change is inactive: -0.119 with alvocidib; inactive: 0.169 with Tubastatin A; inactive: 0.006 with defactinib; inactive: 0.001 in [1]; inactive: -0.046 with encorafenib; inactive: -0.04 in assay [2]. Besides, the log2 fold change in assay [3] was inactive: 0.172; with lapatinib, inactive: -0.534; with pictilisib it was inactive: 0.075; in assay [4] it was inactive: 0.025; with duvelisib, inactive: 0.144; in the assay with gandotinib, inactive: -0.087. In addition, the log2 fold change in the assay with tozasertib was inactive: -0.004; in the assay with bafetinib, inactive: 0.079; in [5], inactive: 0.039.
Turning to PPM1B isoform 2 (UniProt O75688), the log2 fold change with Tubastatin A is inactive: 0.005; in [1], inactive: -0.021; with encorafenib it was inactive: 0.063; in [2], inactive: 0.039; with alisertib, inactive: -0.082; in assay [3], inactive: 0.02. Moreover, the log2 fold change is inactive: 0.12 with gefitinib; inactive: -0.029 with lapatinib; inactive: -0.003 with pictilisib; inactive: 0.084 in the assay with duvelisib; inactive: -0.063 in the assay with tozasertib; inactive: -0.025 with bafetinib.
Turning to PPP6R3 isoform 6 (UniProt Q5H9R7), the log2 fold change in the assay with alvocidib is inactive: -0.232; with Tubastatin A it was inactive: 0.154; in assay [4], inactive: 0.046; with gandotinib, inactive: 0.267; in [5], inactive: 0.016.
Take PROSER3 (UniProt Q2NL68): the log2 fold change is inactive: -0.012 in the assay with alvocidib; inactive: 0.152 in assay [6]; inactive: -0.047 with defactinib; inactive: 0.131 with crizotinib; inactive: -0.022 in [4]; inactive: 0.039 with gandotinib. Also, the figures for the log2 fold change (in the assay with doramapimod; in [5]) were inactive: -0.173 and inactive: -0.139, respectively.
With PRIMPOL (UniProt Q96LW4), the log2 fold change with Tubastatin A was inactive: -0.159; in assay [6], inactive: 0.036; with defactinib, inactive: 0.076; in [1], inactive: 0.071; with encorafenib, inactive: 0.055; in assay [2], inactive: -0.37. Further, the log2 fold change in the assay with alisertib was inactive: -0.113; with gefitinib, inactive: 0.045; with pictilisib it was inactive: 0.02; with crizotinib, inactive: -0.097; with duvelisib, inactive: 0.003; with tozasertib, inactive: -0.031. Further, the log2 fold change with doramapimod was inactive: 0.014; in the assay with bafetinib, inactive: -0.225.
Turning to PRH1 (UniProt P02810), the log2 fold change with alvocidib is inactive: -0.18; in assay [4], inactive: 0.52; in the assay with gandotinib, inactive: -0.899; in [5] it was inactive: 1.41.
As to PPT2, A0A140T9Y1, the log2 fold change is inactive: -0.144 with alisertib and inactive: 0.006 in the assay with gefitinib.
Consider PPP2R3B (UniProt Q9Y5P8), for which the log2 fold change was inactive: 0.013 with alvocidib; inactive: -0.123 in assay [3]; inactive: 0.115 with lapatinib; inactive: 0.123 with pictilisib; inactive: -0.048 in the assay with crizotinib; inactive: 0.048 in [4]. In addition, the log2 fold change is inactive: -0.079 in the assay with gandotinib, inactive: 0.038 with doramapimod, inactive: -0.189 with bafetinib and inactive: -0.068 in assay [5].
With PRG4 (UniProt Q92954), the log2 fold change in the assay with alvocidib is active: -0.826; in the assay with Tubastatin A, inactive: 0.103; in assay [1], inactive: 0.204; with alisertib it was inactive: -0.045; in [3], inactive: 0.093; with gefitinib, inactive: -0.076. Also, the log2 fold change is inactive: -0.097 with lapatinib; inactive: -0.408 with pictilisib; inactive: -0.118 in the assay with crizotinib; active: -1.36 in [4]; inactive: 0.042 with duvelisib; inactive: 0.051 in the assay with gandotinib. The log2 fold change in the assay with doramapimod is inactive: 0.201; in the assay with bafetinib, inactive: -0.238; in [5], inactive: 0.278.
In the case of PPP1R7 isoform 2 (UniProt Q15435), the log2 fold change with Tubastatin A was inactive: -0.035; in assay [3] it was inactive: -0.038; with lapatinib it was inactive: 0.001.
PPME1 (UniProt Q9Y570): the log2 fold change in assay [6] is inactive: 0.125; in assay [1] it was inactive: -0.065; with encorafenib it was inactive: -0.029; in assay [2] it was inactive: -0.059; in [3], inactive: 0.014; with lapatinib, inactive: 0.002. For the same target, the log2 fold change with pictilisib was inactive: 0.038; with duvelisib it was inactive: -0.017; in the assay with tozasertib, inactive: 0.072; with bafetinib, inactive: -0.081.
Consider PPTC7 (UniProt Q8NI37), for which the log2 fold change in the assay with Tubastatin A is inactive: -0.013; with defactinib, inactive: -0.08; in assay [1] it was inactive: -0.094; with duvelisib, inactive: 0.
On to PPP1R7 (UniProt C9JD73), for which the log2 fold change in assay [3] was inactive: 0.006; with lapatinib, inactive: -0.106.
As to PPP1R12C isoform 3 (UniProt Q9BZL4), the log2 fold change was inactive: -0.027 with alvocidib; inactive: -0.023 with Tubastatin A; inactive: -0.017 with pictilisib; inactive: 0 with crizotinib; inactive: 0.109 in assay [4]; inactive: -0.074 with gandotinib. Besides, the log2 fold change with doramapimod was inactive: 0.064; in the assay with bafetinib, inactive: -0.036; in [5], inactive: -0.112.
With PREP (UniProt H0Y5Y0), the log2 fold change with alvocidib was inactive: 0.082; in assay [3] it was inactive: 0.03; with lapatinib it was inactive: -0.029; in [4] it was inactive: -0.304; with gandotinib, inactive: 0.113; in [5] it was inactive: -0.153.
For the target PPIP5K2 (UniProt H0Y9S9), the log2 fold change with Tubastatin A is inactive: 0.061; in assay [6], inactive: -0.036; with defactinib, inactive: 0.045; in assay [1], inactive: -0.092; with encorafenib it was inactive: 0.164; in assay [2], inactive: 0.027. The log2 fold change in assay [3] is inactive: -0.074; in the assay with lapatinib, inactive: 0.099; with pictilisib, inactive: -0.153; with duvelisib it was inactive: 0.004; with tozasertib, inactive: 0.029; in the assay with bafetinib, inactive: -0.15.
On to PPP1R15B (UniProt Q5SWA1), for which the log2 fold change with alvocidib was inactive: 0.066; in assay [4] it was inactive: -0.165; in the assay with gandotinib it was inactive: -0.268; in [5], inactive: 0.249.
